From patent US11878063B2, “Engineered ligands and uses thereof” (Children's Medical Center Corporation, priority 2019, dated 2024)
Part of at least one peptide drawing is inferred or uncertain, most often the ends. Square brackets hold non-standard residues; d marks the D form. Peptide text beside a SMILES is read from it. Aib = CC(C)(N)C(=O)O

Protein sequences, listed by entry. Tags and fused reporters are not part of them. Residues count along the entry.
UniProt P49190, 25-550: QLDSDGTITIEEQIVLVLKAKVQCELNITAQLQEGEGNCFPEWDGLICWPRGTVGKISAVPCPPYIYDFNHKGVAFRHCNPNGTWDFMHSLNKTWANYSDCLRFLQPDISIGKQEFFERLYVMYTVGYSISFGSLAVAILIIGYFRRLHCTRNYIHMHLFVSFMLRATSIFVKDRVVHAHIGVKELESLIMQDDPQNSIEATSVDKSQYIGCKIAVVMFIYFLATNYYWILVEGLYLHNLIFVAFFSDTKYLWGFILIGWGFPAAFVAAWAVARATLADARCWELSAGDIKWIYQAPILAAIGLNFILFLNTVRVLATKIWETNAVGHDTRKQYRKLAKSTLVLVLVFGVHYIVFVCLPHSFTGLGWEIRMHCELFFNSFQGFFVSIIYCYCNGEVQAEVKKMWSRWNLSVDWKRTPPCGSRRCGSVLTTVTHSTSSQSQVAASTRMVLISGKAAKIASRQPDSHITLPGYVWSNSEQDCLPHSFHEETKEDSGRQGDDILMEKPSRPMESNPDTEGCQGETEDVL

How the values were obtained:
PTHR1YFPΔECD = assay: cAMP induction in HEK293 cells stably expressing PTHR1YFPΔECD (YFP replaces extracellular domain); assay type: cell-based, human; details: maximal cAMP response
Method: (§1) Measurement of cAMP response. These assays were performed as previously described^27. Briefly, HEK-293-derived cell lines that stably express the Glosensor cAMP reporter (Promega Corp.)^30 and PTHR1, a PTHR1 variant, or PTHR2 were seeded into white sided 96 well plates (50,000 cells/well) and grown to confluency. Confluent monolayers of cells were pre-incubated with CO2 independent medium containing D-luciferin (0.5 mM) at 37° C. until a stable baseline level of luminescence was established (20 min). Varying concentrations of ligands were then added, and the time course of luminescence response was recorded using BioTek plate reader.
(§2) Data calculations. Data were processed using Microsoft Excel and GraphPad Prism 6. Data from cAMP dose-response assays were analyzed using a sigmoidal dose-response model with variable slope. Data sets were statistically compared by using Student's t test (two-tailed) assuming unequal variances for the two sets.
The portion of PTHR1 encoded by exon 2 is not resolved in structural studies (FIG. 12—Panel d)^13, 14, 17, is not important for ligand binding^18, and in past work has been targeted as a site for receptor modification^18, 19. A construct was generated that encodes a PTHR1 variant in which a 14-residue fragment from exon 2 was replaced with a 14-mer epitope tag from the intracellular protein UBC6e (PTHR16E, FIG. 12—Panel d)^20. […]

PTHR1GFP = assay: cAMP induction in HEK293 cells stably expressing PTHR1GFP; assay type: cell-based, human; details: maximal cAMP response
Method: The GFP-PTHR1 fusion was stably expressed in cells that respond to receptor engagement by activation of a cAMP-sensitive version of luciferase. Exposure of these transfectants to PTH(1-11) yielded the expected dose-response curve with half maximal stimulation at ˜200 nM.
as §1, with “reader. The maximal luminescence response (observed 12-16 min after ligand addition) was used to construct dose-response data sets (Table 4, FIGS. 22A to 22E).” for “reader.”
as §2, with “sets. […]” for “sets.”

rat PTHR1 = molecular target: T1, rat PTHR1 (Rattus norvegicus, UniProt P25961); assay: cAMP induction in HEK293 cells stably expressing rat PTHR1; assay type: cell-based; details: maximal cAMP response
T1 construct: expressed in transfected cells
T1 sequence (P25961 27-591): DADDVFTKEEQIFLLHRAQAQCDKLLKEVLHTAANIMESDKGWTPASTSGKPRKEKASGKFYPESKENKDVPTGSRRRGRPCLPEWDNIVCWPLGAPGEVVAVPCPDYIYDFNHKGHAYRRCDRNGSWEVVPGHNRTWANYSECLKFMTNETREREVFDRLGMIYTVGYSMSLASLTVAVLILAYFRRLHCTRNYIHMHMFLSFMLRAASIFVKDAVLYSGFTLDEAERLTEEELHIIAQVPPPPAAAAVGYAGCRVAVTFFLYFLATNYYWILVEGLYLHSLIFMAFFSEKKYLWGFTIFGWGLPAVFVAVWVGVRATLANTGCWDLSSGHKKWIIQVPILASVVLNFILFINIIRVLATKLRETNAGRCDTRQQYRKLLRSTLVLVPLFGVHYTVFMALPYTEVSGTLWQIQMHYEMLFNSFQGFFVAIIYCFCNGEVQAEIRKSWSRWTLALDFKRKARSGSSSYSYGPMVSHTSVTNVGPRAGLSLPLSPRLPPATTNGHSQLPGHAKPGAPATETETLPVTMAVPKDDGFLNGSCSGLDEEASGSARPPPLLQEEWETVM
Method: (§3) Measurement of cAMP response. These assays were performed as previously described^27. […] Confluent monolayers of cells were pre-incubated with CO2 independent medium containing D-luciferin (0.5 mM) at 37° C. until a stable baseline level of luminescence was established (20 min). Varying concentrations of ligands were then added, and the time course of luminescence response was recorded using BioTek plate reader.
as §2

human PTHR1 = molecular target: T2, human PTHR1 (Homo sapiens, UniProt Q03431); assay: cAMP induction (cAMP-responsive luciferase) in HEK293 cells stably expressing human PTHR1; assay type: cell-based
T2 construct: expressed in transfected cells
T2 sequence (Q03431 27-593): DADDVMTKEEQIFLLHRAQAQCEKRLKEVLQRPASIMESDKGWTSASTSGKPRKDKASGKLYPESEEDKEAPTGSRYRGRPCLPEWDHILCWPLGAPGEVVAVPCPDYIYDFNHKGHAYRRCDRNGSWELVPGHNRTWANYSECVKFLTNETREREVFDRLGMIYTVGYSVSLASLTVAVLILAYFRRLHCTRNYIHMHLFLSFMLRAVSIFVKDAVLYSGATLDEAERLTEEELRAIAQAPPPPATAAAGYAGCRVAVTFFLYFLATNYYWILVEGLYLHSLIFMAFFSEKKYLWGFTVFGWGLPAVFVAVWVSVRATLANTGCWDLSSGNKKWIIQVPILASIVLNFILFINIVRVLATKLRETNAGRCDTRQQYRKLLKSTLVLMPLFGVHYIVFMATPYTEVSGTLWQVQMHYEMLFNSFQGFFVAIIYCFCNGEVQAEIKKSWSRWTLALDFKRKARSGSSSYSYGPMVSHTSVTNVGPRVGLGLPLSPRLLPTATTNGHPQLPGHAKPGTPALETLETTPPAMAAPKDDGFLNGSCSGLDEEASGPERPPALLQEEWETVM
Method: as §3, §2

PTHR2 = molecular target: T3, PTHR2 (Homo sapiens, UniProt P49190); assay: cAMP induction in HEK293 cells stably expressing human PTHR2; assay type: cell-based; details: maximal cAMP response
T3 construct: expressed in transfected cells
Method: as §3, §2

SMILES	Max (normalized ± SD), hPTHR1YFPΔECD (PTHR1YFPΔECD)	Max (normalized ± SD), hPTHR1GFP (PTHR1GFP)	Max (normalized ± SD), rPTHR1 (rat PTHR1)	potency for PTHR1 activation less than that of PTH(1-34) (human PTHR1; Example 1, FIG. 2)	Max (normalized ± SD), hPTHR1 (human PTHR1; maximal cAMP response, normalized)	Max (normalized ± SD), hPTHR2 (PTHR2)
CC[C@H](C)[C@H](NC(=O)[C@H](CCC(=O)O)NC(=O)C(C)(C)NC(=O)[C@@H](NC(=O)[C@H](C)N)C(C)C)C(=O)N[C@@H](CCC(N)=O)C(=O)N[C@@H](CC(C)C)C(=O)N[C@@H](CCSC)C(=O)N[C@@H](Cc1c[nH]cn1)C(=O)N[C@@H](CCC(N)=O)C(=O)N[C@@H](CS)C(N)=O [PTH(1-10)] (H-AV[Aib]EIQLMHQC-NH2; N-terminus assumed)	1.12 ± 0.08	1.16 ± 0.15	–	–	–	–
CC[C@H](C)[C@H](NC(=O)[C@H](CCC(=O)O)NC(=O)C(C)(C)NC(=O)[C@@H](NC(=O)[C@H](C)N)C(C)C)C(=O)N[C@@H](CCC(N)=O)C(=O)N[C@@H](CC(C)C)C(=O)N[C@@H](CCSC)C(=O)N[C@@H](Cc1c[nH]cn1)C(=O)N[C@@H](CCC(N)=O)C(=O)N[C@@H](CCCNC(=N)N)C(=O)N[C@@H](CS)C(N)=O [PTH(1-11)] (H-AV[Aib]EIQLMHQRC-NH2)	1.02 ± 0.12	1.10 ± 0.13	1.02 ± 0.03	~4 orders of magnitude	1.01 ± 0.09	0.36 ± 0.32
